Record: PubChem BioAssay AID1224830 (NIAID, 2016)

Purpose: 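Host factors that control LPS-induced TNF expression in human macrophages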 (primary screen)
Cell system: human THP-1 monocytic leukaemia cells, TNF dual-luciferase reporter clone, PMA-differentiated to macrophage-like cells
Knock-down reagent: siRNA pool against human genes, 50 nM
Time to read-out: LPS for 4 h, given about 3 days after siRNA transfection
Challenge: bacterial LPS (TLR4 ligand), 10 ng/ml
Measured: 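TNF firefly reporter luminescence divided by renilla, normalised to the plate median, then turned into a robust z-score for each replicate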
Reading the numbers: TNF reporter robust z-score: higher = stronger TNF reporter response to LPS
Hit rule: 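Each well counts as active if its z-score is over 2.8 or under -1.5; controls are left without a call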
Shown is a random part of about 18,000 reagents. About 2,900 of them (16%) count as active. 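Calls are made per well; low scores hint the gene aids the LPS response, high scores that it dampens it.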 A number with no mark means an inactive call. Repeated entries: four replicate wells of each siRNA pool.

gene,TNF reporter robust z-score
VPS4B (vacuolar protein sorting 4 homolog B),-0.5
VPS4B (vacuolar protein sorting 4 homolog B),0.34
VPS4B (vacuolar protein sorting 4 homolog B),-0.15
VPS4B (vacuolar protein sorting 4 homolog B),-0.18
GPR183 (G protein-coupled receptor 183),0.64
GPR183 (G protein-coupled receptor 183),1.85
GPR183 (G protein-coupled receptor 183),0.55
GPR183 (G protein-coupled receptor 183),4.4 (active)
SPIN1 (spindlin 1),1.25
SPIN1 (spindlin 1),2.17
SPIN1 (spindlin 1),0.98
SPIN1 (spindlin 1),2.56
CDKN1B (cyclin dependent kinase inhibitor 1B),-0.22
CDKN1B (cyclin dependent kinase inhibitor 1B),-0.05
CDKN1B (cyclin dependent kinase inhibitor 1B),-0.92
CDKN1B (cyclin dependent kinase inhibitor 1B),0.51
SNX32 (sorting nexin 32),1.26
SNX32 (sorting nexin 32),0.82
SNX32 (sorting nexin 32),0.22
SNX32 (sorting nexin 32),0.89
PNMA1 (PNMA family member 1),-1.17
PNMA1 (PNMA family member 1),0.43
PNMA1 (PNMA family member 1),-1.4
PNMA1 (PNMA family member 1),-0.9
NKAPL (NFKB activating protein like),0.05
NKAPL (NFKB activating protein like),2.56
NKAPL (NFKB activating protein like),-0.2
NKAPL (NFKB activating protein like),0.31
FZD9 (frizzled class receptor 9),0.78
FZD9 (frizzled class receptor 9),1.5
FZD9 (frizzled class receptor 9),1.3
FZD9 (frizzled class receptor 9),0.84
ATP5F1D (ATP synthase F1 subunit delta),-0.83
ATP5F1D (ATP synthase F1 subunit delta),0.13
ATP5F1D (ATP synthase F1 subunit delta),1.59
ATP5F1D (ATP synthase F1 subunit delta),0.82
TMEM52B (transmembrane protein 52B),-0.44
TMEM52B (transmembrane protein 52B),0
TMEM52B (transmembrane protein 52B),2.16
TMEM52B (transmembrane protein 52B),-0.84
KRTAP20-1 (keratin associated protein 20-1),-0.73
KRTAP20-1 (keratin associated protein 20-1),-0.7
KRTAP20-1 (keratin associated protein 20-1),-1.6 (active)
KRTAP20-1 (keratin associated protein 20-1),-0.56
CASC3 (CASC3 exon junction complex subunit),-0.37
CASC3 (CASC3 exon junction complex subunit),1.47
CASC3 (CASC3 exon junction complex subunit),-1.06
CASC3 (CASC3 exon junction complex subunit),-0.2
SCG2 (secretogranin II),-0.08
SCG2 (secretogranin II),-1.54 (active)
SCG2 (secretogranin II),-0.1
SCG2 (secretogranin II),0.1
PON3 (paraoxonase 3),-0.77
PON3 (paraoxonase 3),1.13
PON3 (paraoxonase 3),1.81
PON3 (paraoxonase 3),0.05
PAF1 (PAF1 component of Paf1/RNA polymerase II complex),-0.95
PAF1 (PAF1 component of Paf1/RNA polymerase II complex),-0.45
PAF1 (PAF1 component of Paf1/RNA polymerase II complex),-0.81
PAF1 (PAF1 component of Paf1/RNA polymerase II complex),0.12
XKR9 (XK related 9),-0.02
XKR9 (XK related 9),-0.39
XKR9 (XK related 9),0.85
XKR9 (XK related 9),1.79
CPA6 (carboxypeptidase A6),1.11
CPA6 (carboxypeptidase A6),-1.39
CPA6 (carboxypeptidase A6),-0.5

Continued (13 carried over from the part before).
gene,TNF reporter robust z-score
PON3 (paraoxonase 3),1.81
PON3 (paraoxonase 3),0.05
PAF1 (PAF1 component of Paf1/RNA polymerase II complex),-0.95
PAF1 (PAF1 component of Paf1/RNA polymerase II complex),-0.45
PAF1 (PAF1 component of Paf1/RNA polymerase II complex),-0.81
PAF1 (PAF1 component of Paf1/RNA polymerase II complex),0.12
XKR9 (XK related 9),-0.02
XKR9 (XK related 9),-0.39
XKR9 (XK related 9),0.85
XKR9 (XK related 9),1.79
CPA6 (carboxypeptidase A6),1.11
CPA6 (carboxypeptidase A6),-1.39
CPA6 (carboxypeptidase A6),-0.5
CYBC1 (cytochrome b-245 chaperone 1),-1.41
CYBC1 (cytochrome b-245 chaperone 1),-0.29
CYBC1 (cytochrome b-245 chaperone 1),-0.9
CYBC1 (cytochrome b-245 chaperone 1),-0.55
NOD2 (nucleotide binding oligomerization domain containing 2),0.84
NOD2 (nucleotide binding oligomerization domain containing 2),1.18
NOD2 (nucleotide binding oligomerization domain containing 2),0.58
NOD2 (nucleotide binding oligomerization domain containing 2),0.64
YJU2B (YJU2 splicing factor homolog B),-0.39
YJU2B (YJU2 splicing factor homolog B),-0.67
YJU2B (YJU2 splicing factor homolog B),-1.17
YJU2B (YJU2 splicing factor homolog B),-1.74 (active)
TRMT11 (tRNA methyltransferase 11),-0.48
TRMT11 (tRNA methyltransferase 11),-0.83
TRMT11 (tRNA methyltransferase 11),-0.42
TRMT11 (tRNA methyltransferase 11),-0.08
GALNT6 (polypeptide N-acetylgalactosaminyltransferase 6),0.52
GALNT6 (polypeptide N-acetylgalactosaminyltransferase 6),1.01
GALNT6 (polypeptide N-acetylgalactosaminyltransferase 6),1.38
GALNT6 (polypeptide N-acetylgalactosaminyltransferase 6),2.16
SLC38A3,-1.4
SLC38A3,-1.8 (active)
SLC38A3,-1.5
SLC38A3,-1.84 (active)
MRPL52 (mitochondrial ribosomal protein L52),1.25
MRPL52 (mitochondrial ribosomal protein L52),1.33
MRPL52 (mitochondrial ribosomal protein L52),0.67
MRPL52 (mitochondrial ribosomal protein L52),1.42
SNAI1 (snail family transcriptional repressor 1),-1.32
SNAI1 (snail family transcriptional repressor 1),-0.49
SNAI1 (snail family transcriptional repressor 1),-0.77
SNAI1 (snail family transcriptional repressor 1),-0.11
NPSR1 (neuropeptide S receptor 1),-0.1
NPSR1 (neuropeptide S receptor 1),0.47
NPSR1 (neuropeptide S receptor 1),-0.15
NPSR1 (neuropeptide S receptor 1),0.14
IFRD2 (interferon related developmental regulator 2),-0.75
IFRD2 (interferon related developmental regulator 2),-0.63
IFRD2 (interferon related developmental regulator 2),-0.11
IFRD2 (interferon related developmental regulator 2),-0.5
PJA1 (praja ring finger ubiquitin ligase 1),1.72
PJA1 (praja ring finger ubiquitin ligase 1),4.74 (active)
PJA1 (praja ring finger ubiquitin ligase 1),0.64
PJA1 (praja ring finger ubiquitin ligase 1),0.55
